Results taken from patent publication US10502741B2 (Helmholtz Zentrum München Deutsches Forschungszentrum für …, priority 2014, dated 2019).

What was measured:
[1] = general procedure: Fmoc solid-phase peptide synthesis; 2-chlorotrityl chloride resin (Merck) for probe 2; arginine AOMK building block bound to resin through a hydrazone linka; conditions: whole synthesis, based on Fmoc-loading of resin 3
[2] = Fmoc solid-phase peptide synthesis; 2-chlorotrityl chloride resin (Merck) for probe 2; arginine AOMK building block bound to resin through a hydrazone linka; conditions: whole synthesis, based on Fmoc-loading of resin 3

Substance	isolated yield [1]	isolated yield [2]
Ac-Lys(biotin)-LRSR-AOMK	1.9%	–
FITC-LRSR-AOMK (FITC N-terminal label, AOMK warhead)	–	7.6%
(BODIPY-FL)-LRSR-AOMK (BODIPY-FL N-terminal label, AOMK warhead)	–	3.5%
